Where a name gives a salt, the structure may show the parent alone. Some of the results follow. The calls rarely recur for the same compound in another form.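 In K562 cells expressing nanoluciferase-fused kinases, luminescence was recorded at 4 h intervals between 2 and 18 h, normalized as percent of control with DMSO at 100% and a positive control at 0%. A significant (2 sigma) signal drop marks a time point as decreased. The authors' rule for a hit is not shown and takes in more than the number of time points.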
Experiments:
Experiment in all cases: number of time points (of 5) at which kinase-Nluc abundance scored as decreased, DMSO-normalised (count); higher = more persistent destabilization
Conditions in all cases: K562; 2-18 h
ALK = ALK (UniProt Q9UM73)
ARAF = ARAF (UniProt P10398)
AURKA = AURKA (UniProt O14965)
AURKB = AURKB (UniProt Q96GD4)
AURKC = AURKC (UniProt Q9UQB9)
BLK = BLK (UniProt P51451)
BMX = BMX (UniProt P51813)
BRAF = BRAF (UniProt P15056)
BRAF_V600E = tested on: BRAF_V600E
BTK = BTK (UniProt Q06187)
CAMK2A = CAMK2A (UniProt Q9UQM7)
CAMK2G = CAMK2G (UniProt Q13555)
CDK10 = CDK10 (UniProt Q15131)
CDK2 = CDK2 (UniProt P24941)
CDK3 = CDK3 (UniProt Q00526)
CDK5 = CDK5 (UniProt Q00535)
CDK6 = CDK6 (UniProt Q00534)
CHEK2 = CHEK2 (UniProt O96017)
CSF1R = CSF1R (UniProt P07333)
CSK = CSK (UniProt P41240)

Amino acid sequences for entries named in this document (tags omitted). A change or cut given only in a name is not applied to a line headed by its entry.
UniProt P10398: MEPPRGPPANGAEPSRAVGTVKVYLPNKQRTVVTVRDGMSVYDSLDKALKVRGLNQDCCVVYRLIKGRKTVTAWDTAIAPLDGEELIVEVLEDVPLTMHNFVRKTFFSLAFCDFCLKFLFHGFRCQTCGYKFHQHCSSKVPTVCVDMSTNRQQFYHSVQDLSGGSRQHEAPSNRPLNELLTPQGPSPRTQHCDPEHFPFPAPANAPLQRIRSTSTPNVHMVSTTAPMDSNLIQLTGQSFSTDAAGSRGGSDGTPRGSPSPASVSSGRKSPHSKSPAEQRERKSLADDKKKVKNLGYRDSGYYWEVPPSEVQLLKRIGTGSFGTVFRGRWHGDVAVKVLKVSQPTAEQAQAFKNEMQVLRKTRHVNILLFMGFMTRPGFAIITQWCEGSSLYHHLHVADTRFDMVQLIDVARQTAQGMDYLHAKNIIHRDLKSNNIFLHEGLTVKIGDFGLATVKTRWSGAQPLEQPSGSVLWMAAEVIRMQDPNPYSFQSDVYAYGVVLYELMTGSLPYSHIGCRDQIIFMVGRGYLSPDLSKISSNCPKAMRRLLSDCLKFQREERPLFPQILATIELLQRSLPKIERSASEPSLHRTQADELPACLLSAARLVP
UniProt O14965: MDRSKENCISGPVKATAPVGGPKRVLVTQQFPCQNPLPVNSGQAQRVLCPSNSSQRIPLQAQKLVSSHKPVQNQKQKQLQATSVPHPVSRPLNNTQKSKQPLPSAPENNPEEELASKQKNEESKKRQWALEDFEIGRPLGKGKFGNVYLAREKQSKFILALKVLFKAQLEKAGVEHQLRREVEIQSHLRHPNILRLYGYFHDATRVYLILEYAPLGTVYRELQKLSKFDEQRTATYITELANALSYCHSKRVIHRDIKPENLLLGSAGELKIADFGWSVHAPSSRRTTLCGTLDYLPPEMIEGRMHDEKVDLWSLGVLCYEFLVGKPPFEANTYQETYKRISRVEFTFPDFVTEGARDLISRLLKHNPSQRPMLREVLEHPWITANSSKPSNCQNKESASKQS
UniProt Q96GD4, whole entry: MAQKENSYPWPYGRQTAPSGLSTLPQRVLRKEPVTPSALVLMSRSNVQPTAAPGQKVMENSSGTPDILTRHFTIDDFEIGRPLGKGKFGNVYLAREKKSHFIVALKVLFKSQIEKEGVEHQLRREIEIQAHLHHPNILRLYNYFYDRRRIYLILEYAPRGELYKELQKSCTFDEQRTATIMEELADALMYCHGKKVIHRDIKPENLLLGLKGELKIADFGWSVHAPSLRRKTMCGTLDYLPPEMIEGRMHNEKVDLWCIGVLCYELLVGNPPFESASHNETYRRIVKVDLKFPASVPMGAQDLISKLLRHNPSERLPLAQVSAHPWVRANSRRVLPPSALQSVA
UniProt Q9UQB9: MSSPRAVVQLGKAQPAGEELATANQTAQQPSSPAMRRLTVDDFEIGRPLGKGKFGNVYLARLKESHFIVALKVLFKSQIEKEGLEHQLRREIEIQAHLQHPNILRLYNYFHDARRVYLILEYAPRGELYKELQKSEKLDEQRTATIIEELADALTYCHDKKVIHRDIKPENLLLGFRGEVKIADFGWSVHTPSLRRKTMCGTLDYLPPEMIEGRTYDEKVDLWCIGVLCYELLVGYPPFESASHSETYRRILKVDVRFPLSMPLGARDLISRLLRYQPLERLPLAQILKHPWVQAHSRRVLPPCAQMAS
UniProt P51813: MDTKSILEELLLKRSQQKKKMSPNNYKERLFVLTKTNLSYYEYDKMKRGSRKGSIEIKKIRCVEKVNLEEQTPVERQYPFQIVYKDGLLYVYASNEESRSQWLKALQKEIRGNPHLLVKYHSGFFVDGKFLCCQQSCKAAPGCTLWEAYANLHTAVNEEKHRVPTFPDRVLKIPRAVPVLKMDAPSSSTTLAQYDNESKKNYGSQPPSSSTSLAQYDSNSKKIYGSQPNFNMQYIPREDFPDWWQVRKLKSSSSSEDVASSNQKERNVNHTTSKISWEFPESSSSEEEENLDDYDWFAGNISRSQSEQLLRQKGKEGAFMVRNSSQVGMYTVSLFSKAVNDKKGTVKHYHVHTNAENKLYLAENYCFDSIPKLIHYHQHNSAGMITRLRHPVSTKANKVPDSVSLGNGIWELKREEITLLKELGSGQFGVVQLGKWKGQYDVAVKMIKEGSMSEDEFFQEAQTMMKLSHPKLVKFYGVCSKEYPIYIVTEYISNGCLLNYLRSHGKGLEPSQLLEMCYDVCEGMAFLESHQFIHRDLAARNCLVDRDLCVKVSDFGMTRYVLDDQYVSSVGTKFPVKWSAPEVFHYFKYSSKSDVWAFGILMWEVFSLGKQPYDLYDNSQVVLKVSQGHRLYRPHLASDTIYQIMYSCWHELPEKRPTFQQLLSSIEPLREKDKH
UniProt Q06187: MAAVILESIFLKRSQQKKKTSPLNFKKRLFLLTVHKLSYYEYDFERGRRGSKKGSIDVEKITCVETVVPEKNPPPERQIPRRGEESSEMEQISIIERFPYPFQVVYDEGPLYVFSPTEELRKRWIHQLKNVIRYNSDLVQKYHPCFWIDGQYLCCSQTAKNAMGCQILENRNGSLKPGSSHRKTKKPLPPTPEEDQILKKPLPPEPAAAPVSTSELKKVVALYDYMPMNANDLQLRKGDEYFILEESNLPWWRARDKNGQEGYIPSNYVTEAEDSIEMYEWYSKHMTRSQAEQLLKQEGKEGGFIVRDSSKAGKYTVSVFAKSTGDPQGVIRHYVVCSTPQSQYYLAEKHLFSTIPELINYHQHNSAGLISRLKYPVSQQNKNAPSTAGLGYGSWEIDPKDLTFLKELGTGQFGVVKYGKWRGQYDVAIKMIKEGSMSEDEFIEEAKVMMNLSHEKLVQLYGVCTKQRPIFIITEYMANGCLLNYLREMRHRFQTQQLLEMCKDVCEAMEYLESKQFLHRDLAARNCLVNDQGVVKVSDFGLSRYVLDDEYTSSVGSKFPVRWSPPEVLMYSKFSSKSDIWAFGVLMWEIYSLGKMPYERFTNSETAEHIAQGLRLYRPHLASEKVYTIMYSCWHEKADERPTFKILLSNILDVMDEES
UniProt Q9UQM7, whole entry: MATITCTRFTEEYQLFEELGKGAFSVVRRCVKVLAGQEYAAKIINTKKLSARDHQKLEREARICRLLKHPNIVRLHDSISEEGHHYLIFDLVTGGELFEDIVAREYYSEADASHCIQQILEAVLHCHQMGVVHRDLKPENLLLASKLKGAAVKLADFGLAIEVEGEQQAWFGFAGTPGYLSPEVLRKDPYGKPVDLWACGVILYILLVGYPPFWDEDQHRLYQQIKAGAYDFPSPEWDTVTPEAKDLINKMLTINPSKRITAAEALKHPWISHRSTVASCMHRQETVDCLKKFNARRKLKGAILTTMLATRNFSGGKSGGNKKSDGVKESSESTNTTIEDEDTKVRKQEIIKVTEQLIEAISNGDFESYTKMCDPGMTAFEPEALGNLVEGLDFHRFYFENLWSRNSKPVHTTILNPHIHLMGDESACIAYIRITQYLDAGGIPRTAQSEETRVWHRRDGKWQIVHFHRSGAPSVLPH
UniProt Q15131: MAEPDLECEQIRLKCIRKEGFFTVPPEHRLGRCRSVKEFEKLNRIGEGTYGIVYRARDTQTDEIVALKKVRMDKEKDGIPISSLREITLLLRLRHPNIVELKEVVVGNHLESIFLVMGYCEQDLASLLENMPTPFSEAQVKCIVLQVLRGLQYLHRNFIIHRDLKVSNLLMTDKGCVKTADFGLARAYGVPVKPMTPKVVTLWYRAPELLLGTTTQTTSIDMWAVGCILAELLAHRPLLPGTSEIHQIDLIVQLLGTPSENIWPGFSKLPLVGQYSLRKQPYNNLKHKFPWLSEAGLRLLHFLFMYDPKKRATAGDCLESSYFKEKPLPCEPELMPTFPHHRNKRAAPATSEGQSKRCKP
UniProt Q00526: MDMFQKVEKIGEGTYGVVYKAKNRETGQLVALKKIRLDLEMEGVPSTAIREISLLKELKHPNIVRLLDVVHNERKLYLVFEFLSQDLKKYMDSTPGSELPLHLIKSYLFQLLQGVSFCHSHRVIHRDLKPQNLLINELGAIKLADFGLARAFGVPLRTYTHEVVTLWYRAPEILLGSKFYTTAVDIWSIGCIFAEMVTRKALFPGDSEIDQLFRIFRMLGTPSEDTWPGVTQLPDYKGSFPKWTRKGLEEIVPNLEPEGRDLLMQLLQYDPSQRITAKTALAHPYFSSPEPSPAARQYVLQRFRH
UniProt Q00534, whole entry: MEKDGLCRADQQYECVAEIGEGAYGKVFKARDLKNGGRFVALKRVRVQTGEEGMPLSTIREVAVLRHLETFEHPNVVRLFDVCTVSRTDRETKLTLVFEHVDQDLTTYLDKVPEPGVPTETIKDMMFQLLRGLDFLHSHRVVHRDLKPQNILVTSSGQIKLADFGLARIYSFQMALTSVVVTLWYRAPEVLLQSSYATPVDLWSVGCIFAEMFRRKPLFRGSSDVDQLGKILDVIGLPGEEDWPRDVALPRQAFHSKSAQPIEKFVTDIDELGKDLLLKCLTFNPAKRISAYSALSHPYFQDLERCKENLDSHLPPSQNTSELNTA
UniProt O96017, whole entry: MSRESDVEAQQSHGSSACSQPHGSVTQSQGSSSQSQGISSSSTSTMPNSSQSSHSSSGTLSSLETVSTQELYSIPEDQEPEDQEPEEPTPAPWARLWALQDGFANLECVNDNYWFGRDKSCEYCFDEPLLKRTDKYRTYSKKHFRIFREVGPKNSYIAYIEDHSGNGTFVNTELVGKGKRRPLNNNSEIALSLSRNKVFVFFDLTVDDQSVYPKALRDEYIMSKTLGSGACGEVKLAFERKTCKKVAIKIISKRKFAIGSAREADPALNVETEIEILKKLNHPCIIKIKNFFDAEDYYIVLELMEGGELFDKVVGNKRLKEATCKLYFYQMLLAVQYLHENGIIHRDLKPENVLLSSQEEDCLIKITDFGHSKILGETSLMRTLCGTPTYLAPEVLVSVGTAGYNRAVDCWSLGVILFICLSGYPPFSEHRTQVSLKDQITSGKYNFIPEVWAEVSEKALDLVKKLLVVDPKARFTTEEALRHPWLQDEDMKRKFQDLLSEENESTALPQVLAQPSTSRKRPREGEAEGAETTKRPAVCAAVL
UniProt P07333, whole entry: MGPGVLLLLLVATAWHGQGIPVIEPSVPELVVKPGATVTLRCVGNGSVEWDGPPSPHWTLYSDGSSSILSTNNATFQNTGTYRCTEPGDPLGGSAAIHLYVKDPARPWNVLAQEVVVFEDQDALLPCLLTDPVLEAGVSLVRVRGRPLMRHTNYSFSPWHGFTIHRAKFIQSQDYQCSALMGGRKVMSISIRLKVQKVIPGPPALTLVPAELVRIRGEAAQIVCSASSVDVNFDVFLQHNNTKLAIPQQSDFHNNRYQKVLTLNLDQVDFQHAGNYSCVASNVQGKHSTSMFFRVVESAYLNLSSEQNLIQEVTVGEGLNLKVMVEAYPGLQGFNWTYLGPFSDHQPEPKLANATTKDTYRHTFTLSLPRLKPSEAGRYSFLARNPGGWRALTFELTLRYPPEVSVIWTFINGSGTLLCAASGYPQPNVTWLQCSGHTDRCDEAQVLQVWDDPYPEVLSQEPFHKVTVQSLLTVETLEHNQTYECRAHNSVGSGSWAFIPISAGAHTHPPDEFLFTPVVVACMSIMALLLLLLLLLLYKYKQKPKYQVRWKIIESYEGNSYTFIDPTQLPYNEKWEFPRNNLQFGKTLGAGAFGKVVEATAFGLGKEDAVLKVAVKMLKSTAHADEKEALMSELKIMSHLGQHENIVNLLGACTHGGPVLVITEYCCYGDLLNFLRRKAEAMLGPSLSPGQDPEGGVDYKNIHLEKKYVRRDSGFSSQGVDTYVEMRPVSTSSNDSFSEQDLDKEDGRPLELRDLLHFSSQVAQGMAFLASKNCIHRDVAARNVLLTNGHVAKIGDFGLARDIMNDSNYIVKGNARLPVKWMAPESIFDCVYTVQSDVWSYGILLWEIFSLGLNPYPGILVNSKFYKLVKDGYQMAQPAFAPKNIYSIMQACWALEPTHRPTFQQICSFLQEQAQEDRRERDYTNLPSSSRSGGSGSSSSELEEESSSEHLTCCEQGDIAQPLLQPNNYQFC
UniProt P41240: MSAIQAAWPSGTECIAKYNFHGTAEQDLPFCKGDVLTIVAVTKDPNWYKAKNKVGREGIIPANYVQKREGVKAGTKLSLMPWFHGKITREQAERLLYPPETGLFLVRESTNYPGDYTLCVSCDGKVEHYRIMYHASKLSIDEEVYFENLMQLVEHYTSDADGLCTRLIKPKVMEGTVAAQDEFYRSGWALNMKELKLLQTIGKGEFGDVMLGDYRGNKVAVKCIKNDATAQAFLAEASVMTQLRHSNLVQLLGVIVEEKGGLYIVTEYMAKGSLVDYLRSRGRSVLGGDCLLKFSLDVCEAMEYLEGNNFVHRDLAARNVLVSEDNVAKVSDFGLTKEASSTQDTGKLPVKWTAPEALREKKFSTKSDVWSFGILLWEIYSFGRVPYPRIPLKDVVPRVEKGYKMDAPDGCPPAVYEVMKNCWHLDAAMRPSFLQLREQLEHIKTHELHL

Measured: number of time points

CN(CCNc1ccc2ncc(-c3ccc(C(N)=O)cc3)n2n1)C(=O)OC(C)(C)C (10 µM)
1: BRAF
3: BMX
0: ALK | ARAF | AURKA | AURKB | AURKC | BLK | BRAF_V600E | BTK | CAMK2A | CAMK2G | CDK10 | CDK2 | CDK3 | CDK5 | CDK6 | CHEK2 | CSF1R | CSK

O=C(/C=C/c1ccc(O[C@@H]2O[C@H](CO)[C@@H](O)[C@H](O)[C@H]2O[C@@H]2OC[C@](O)(CO)[C@H]2O)cc1)c1ccc(O)cc1O [Isoliquiritin apioside] (10 µM)
0: ALK | ARAF | AURKA | AURKB | AURKC | BLK | BMX | BRAF | BRAF_V600E | BTK | CAMK2A | CAMK2G | CDK10 | CDK2 | CDK3 | CDK5 | CDK6 | CHEK2 | CSF1R | CSK

CCOc1cc(C(=O)N2CCC(N3CCN(C)CC3)CC2)ccc1Nc1ncc2c(n1)N(C1CCCC1)c1ccccc1C(=O)N2C (10 µM)
0: ALK | ARAF | AURKA | AURKB | AURKC | BLK | BMX | BRAF | BRAF_V600E | BTK | CAMK2A | CAMK2G | CDK10 | CDK2 | CDK3 | CDK5 | CDK6 | CHEK2 | CSF1R | CSK

Cc1ccc(S(=O)(=O)Nc2ccccc2C=Nc2ccccc2NS(=O)(=O)c2ccc(C)cc2)cc1 (10 µM)
0: ALK | ARAF | AURKA | AURKB | AURKC | BLK | BMX | BRAF | BRAF_V600E | BTK | CAMK2A | CAMK2G | CDK10 | CDK2 | CDK3 | CDK5 | CDK6 | CHEK2 | CSF1R | CSK

CC(c1ccc(-c2cnc3c(-c4ccc(S(N)(=O)=O)c5ccccc45)cnn3c2)cc1)N1CCCC1 (stereo not given) (2.5 µM)
0: ALK | ARAF | AURKA | AURKB | AURKC | BLK | BMX | BRAF | BRAF_V600E | BTK | CAMK2A | CAMK2G | CDK10 | CDK2 | CDK3 | CDK5 | CDK6 | CHEK2 | CSF1R | CSK

C=CC(=O)Nc1ccc(CN(C(=O)Nc2c(Cl)c(OC)cc(OC)c2Cl)c2cc(Nc3ccc(N4CCN(C)CC4)cc3)ncn2)cc1 (10 µM)
0: ALK | ARAF | AURKA | AURKB | AURKC | BMX | BRAF | BRAF_V600E | BTK | CAMK2A | CAMK2G | CDK10 | CDK2 | CDK3 | CDK5 | CDK6 | CHEK2 | CSF1R | CSK
1: BLK

Cc1ccc(S(=O)(=O)/C=C/C#N)cc1 (10 µM)
3: CDK6
1: BRAF
0: ALK | ARAF | AURKA | AURKB | AURKC | BLK | BMX | BRAF_V600E | BTK | CAMK2A | CAMK2G | CDK10 | CDK2 | CDK3 | CDK5 | CHEK2 | CSF1R | CSK

CNC(=O)Nc1ccc(-c2cc(-c3ccnc(Nc4ccc(C)c(S(=O)(=O)N(C)C)c4)n3)ccn2)cc1 [hSMG-1 inhibitor 11e] (2.5 µM)
1: CHEK2
0: ALK | ARAF | AURKB | AURKC | BLK | BMX | BRAF | BRAF_V600E | BTK | CAMK2A | CAMK2G | CDK10 | CDK2 | CDK3 | CDK5 | CDK6 | CSF1R | CSK
3: AURKA

Nc1ncnc2c1ncn2[C@@H]1O[C@H](CO)C[C@H]1O [Cordycepin] (10 µM)
0: ALK | ARAF | AURKA | AURKB | AURKC | BLK | BMX | BRAF | BRAF_V600E | BTK | CAMK2A | CAMK2G | CDK10 | CDK2 | CDK3 | CDK5 | CDK6 | CHEK2 | CSF1R | CSK

COc1ncc(-c2nc(N3CCOCC3)nc3c(CN4CCC(C(C)(C)O)CC4)cc(F)cc23)cc1NS(C)(=O)=O [Linperlisib] (10 µM)
0: ALK | ARAF | AURKA | AURKB | AURKC | BLK | BMX | BRAF | BRAF_V600E | BTK | CAMK2A | CAMK2G | CDK10 | CDK2 | CDK3 | CDK5 | CDK6 | CHEK2 | CSF1R | CSK

N[C@H](Cc1c[nH]c2ccccc12)C(=O)N/N=C/c1ccc2nccnc2c1 [Rhosin (hydrochloride)] (10 µM)
0: ALK | ARAF | AURKA | AURKB | AURKC | BLK | BMX | BRAF | BRAF_V600E | BTK | CAMK2A | CAMK2G | CDK10 | CDK2 | CDK3 | CDK5 | CDK6 | CHEK2 | CSF1R | CSK

O=C(Nc1cccnc1)c1cc(C(=O)c2c(F)cccc2Br)c[nH]1 (10 µM)
0: ALK | ARAF | AURKA | AURKB | AURKC | BLK | BMX | BRAF | BRAF_V600E | BTK | CAMK2A | CAMK2G | CDK10 | CDK2 | CDK3 | CDK5 | CDK6 | CHEK2 | CSF1R | CSK

O=C(Nc1ccc(F)cc1F)[C@H](NC(=S)Nc1cc(C(F)(F)F)cc(C(F)(F)F)c1)c1ccccc1 (2.5 µM)
0: ALK | ARAF | AURKA | AURKB | AURKC | BLK | BMX | BRAF | BRAF_V600E | BTK | CAMK2A | CAMK2G | CDK10 | CDK2 | CDK3 | CDK5 | CDK6 | CHEK2 | CSF1R | CSK

Cc1ccc(Oc2nc3cc(-c4ccc5c(ccn5C)c4)c(Cl)cc3[nH]2)cc1C(=O)O (10 µM)
0: ALK | ARAF | AURKA | AURKB | AURKC | BLK | BMX | BRAF | BRAF_V600E | BTK | CAMK2A | CAMK2G | CDK10 | CDK2 | CDK3 | CDK5 | CDK6 | CHEK2 | CSF1R | CSK

COc1ccc(C(=C2C(=O)Nc3ccccc32)c2ccc(OC)cc2)cc1 (10 µM)
0: ALK | ARAF | AURKA | AURKB | AURKC | BLK | BMX | BRAF | BRAF_V600E | BTK | CAMK2A | CAMK2G | CDK10 | CDK2 | CDK3 | CDK5 | CDK6 | CHEK2 | CSF1R | CSK

CN1CCN(c2ccc(C(=O)Nc3cc(-c4cccc(NS(=O)(=O)c5ccccc5)c4)[nH]n3)cc2)CC1 [BPR1J-097 Hydrochloride] (2.5 µM)
0: ALK | ARAF | AURKA | AURKB | AURKC | BLK | BMX | BRAF | BRAF_V600E | BTK | CAMK2A | CAMK2G | CDK10 | CDK2 | CDK3 | CDK5 | CDK6 | CHEK2 | CSF1R | CSK

COC1(c2sc3c(N4CCOCC4)nc(-c4cnc(N)nc4)nc3c2C)COC1 (2.5 µM)
1: ALK | BMX
0: ARAF | AURKA | AURKB | AURKC | BLK | BRAF | BRAF_V600E | BTK | CAMK2A | CAMK2G | CDK10 | CDK2 | CDK3 | CDK5 | CDK6 | CHEK2 | CSF1R | CSK

2 compounds drawn at random from the list so far:
COc1ncc(-c2nc(N3CCOCC3)nc3c(CN4CCC(C(C)(C)O)CC4)cc(F)cc23)cc1NS(C)(=O)=O [Linperlisib] (10 µM)
0: ALK | ARAF | AURKA | AURKB | AURKC | BLK | BMX | BRAF | BRAF_V600E | BTK | CAMK2A | CAMK2G | CDK10 | CDK2 | CDK3 | CDK5 | CDK6 | CHEK2 | CSF1R | CSK

C=CC(=O)Nc1ccc(CN(C(=O)Nc2c(Cl)c(OC)cc(OC)c2Cl)c2cc(Nc3ccc(N4CCN(C)CC4)cc3)ncn2)cc1 (10 µM)
0: ALK | ARAF | AURKA | AURKB | AURKC | BMX | BRAF | BRAF_V600E | BTK | CAMK2A | CAMK2G | CDK10 | CDK2 | CDK3 | CDK5 | CDK6 | CHEK2 | CSF1R | CSK
1: BLK

Remaining list, next part:

CC(C)(NS(=O)(=O)c1ccc2c(Cl)cnc(N=C(N)N)c2c1)C(=O)O (10 µM)
0: ALK | ARAF | AURKA | AURKB | AURKC | BLK | BMX | BRAF | BRAF_V600E | BTK | CAMK2A | CAMK2G | CDK10 | CDK2 | CDK3 | CDK5 | CDK6 | CHEK2 | CSF1R | CSK

CN1CCN(c2ccc(Nc3ncc4nc(Nc5ccccc5)n([C@@H]5CCN(S(=O)(=O)C6CC6)C5)c4n3)cc2)CC1 (2.5 µM)
0: ALK | ARAF | AURKA | AURKB | AURKC | BMX | BRAF | BRAF_V600E | BTK | CAMK2A | CAMK2G | CDK10 | CDK2 | CDK3 | CDK5 | CDK6 | CHEK2 | CSF1R | CSK
3: BLK

O=C(CNC(=O)c1ccc(-c2ccccc2)cc1)NC1CCCc2ccccc21 (stereo not given) [TAO Kinase inhibitor 1] (10 µM)
0: ALK | ARAF | AURKA | AURKB | AURKC | BLK | BMX | BRAF | BRAF_V600E | BTK | CAMK2A | CAMK2G | CDK10 | CDK2 | CDK3 | CDK5 | CDK6 | CHEK2 | CSF1R | CSK

CNCc1ccccc1-c1csc([C@@H](C)Nc2nc(C)nc3cc(OC)c(OC)cc23)c1 (2.5 µM)
0: ALK | ARAF | AURKA | AURKB | AURKC | BLK | BMX | BRAF | BTK | CAMK2A | CAMK2G | CDK10 | CDK2 | CDK3 | CDK5 | CDK6 | CHEK2 | CSF1R | CSK
2: BRAF_V600E

O=C(Nc1ccc2[nH]nc(-c3ccncc3)c2c1)[C@@H]1CCN(CC(=O)N2CCN(c3ccc(-c4ncccn4)cc3)CC2)C1 (2.5 µM)
0: ALK | ARAF | AURKA | AURKB | AURKC | BLK | BMX | BRAF | BRAF_V600E | BTK | CAMK2A | CAMK2G | CDK10 | CDK2 | CDK3 | CDK5 | CDK6 | CHEK2 | CSF1R | CSK
